Values joined by “and” are separate entries in the source; they are usually repeats but may differ in a detail not shown here. Identical values can stand only once. Among all 580,000 compounds or so, about 6,100 (1.1%) were called active. Inconclusive results, whose numbers are uncertain, are shown with a selection of clear calls. The call rests on the fitted dose curve; in most records, active means well fitted inhibition curve with a large enough effect; inconclusive means small, poorly fitted or top-dose-only effect, or another doubt; inactive means no such curve, though single readings can be large or run the other way. Potencies of inconclusive entries are doubtful fits and often do not repeat.
Biological target: Polyunsaturated fatty acid lipoxygenase ALOX12 (Homo sapiens) (UniProt P18054)
Assay: Primary qHTS assay for inhibitors of human arachidonate 12S-lipoxygenase (ALOX12): Round 2
Details: purified 12hLO, xylenol orange hydroperoxide absorbance; activity change, negative = inhibition: at 108 µM (top of the series) unless noted
Method in brief: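 Purified human 12hLO (150 nM final) in 25 mM Hepes, 0.01% Triton X-100, pH 7.0 was preincubated 15 min at room temperature with compound. Then 40 uM arachidonic acid was added, 30 min. Hydroperoxide was read by Fe-XO absorbance ratio 573/405 nm.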
On the % scale 0 is the no-effect control and ±100 the full control effect; potency means the concentration at half of the fitted maximal effect.

Chains of the proteins cited; added tags and fusions are not shown.
UniProt P18054, whole entry, looked up: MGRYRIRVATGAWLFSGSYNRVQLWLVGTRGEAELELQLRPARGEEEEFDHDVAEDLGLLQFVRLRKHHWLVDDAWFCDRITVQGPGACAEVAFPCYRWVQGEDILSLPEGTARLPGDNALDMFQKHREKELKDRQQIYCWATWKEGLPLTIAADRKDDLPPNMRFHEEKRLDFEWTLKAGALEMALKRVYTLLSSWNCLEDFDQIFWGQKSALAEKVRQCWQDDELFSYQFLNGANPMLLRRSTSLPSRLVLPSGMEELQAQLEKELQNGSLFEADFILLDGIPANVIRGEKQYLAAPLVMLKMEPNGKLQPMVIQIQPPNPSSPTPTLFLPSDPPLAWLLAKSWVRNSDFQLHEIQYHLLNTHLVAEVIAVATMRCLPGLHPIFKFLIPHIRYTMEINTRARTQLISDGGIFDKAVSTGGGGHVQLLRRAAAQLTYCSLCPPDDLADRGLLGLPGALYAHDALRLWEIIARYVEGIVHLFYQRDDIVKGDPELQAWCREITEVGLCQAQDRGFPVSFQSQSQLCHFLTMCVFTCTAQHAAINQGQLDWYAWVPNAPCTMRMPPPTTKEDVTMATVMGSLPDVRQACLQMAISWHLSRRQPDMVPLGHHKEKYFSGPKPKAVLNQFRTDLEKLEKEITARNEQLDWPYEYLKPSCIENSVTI

| SMILES | Potency | activity change, negative = inhibition |
| --- | --- | --- |
| COc1ccc(NC(=O)C2CCCN2C(=O)NC2CCCCC2)c(OC)c1 (stereo not drawn) | inconclusive: 79.4 µM [inhibitor, partial curve, poor fit] | – |
| COc1ccc(CN2C[C@H](O)C[C@H]2c2nc(Cc3ccc(F)cc3Cl)no2)c2ccccc12 | inconclusive: 44.7 µM [inhibitor, partial curve] | – |
| O=S1(=O)C[C@H](N2CCC(Cc3ccccc3)CC2)[C@@H](COCc2ccccc2)N1 | inconclusive: 112 µM [inhibitor, single point] | – |
| O=C(CSCc1nc2sc3c(c2c(=O)[nH]1)CCC3)NCc1ccc(C(F)(F)F)cc1 | – | inactive: -12.4% |
| S=c1[nH]nc(CSCc2ccccc2Cl)n1-c1ccccc1 | inconclusive: 63.1 µM [inhibitor, partial curve, poor fit] | – |
| CC(=O)c1cnn(-c2cc(Oc3ccc(S(=O)(=O)c4ccccc4)cc3)nc(C)n2)c1C | – | inactive: 24.8% |
| Cc1ccc(NC(=S)NCc2ccccn2)cc1 | inconclusive: 39.8 µM [inhibitor, partial curve, poor fit] | – |
| CN1CCN(c2ncc3nc(-c4ccccc4)c(=O)n(Cc4cccs4)c3n2)CC1 | inconclusive: 39.8 µM [inhibitor, partial curve, poor fit] | – |
| CCOC(=O)N1CCC(NC(=O)c2cnn3c(C)c(Cc4cc(C)ccc4C)c(C)nc23)CC1 | inconclusive: 70.8 µM [inhibitor, partial curve, poor fit] | – |
| N#CC1(C(N)=O)C(c2ccccc2)CC(=O)CC1c1ccccc1 (stereo not drawn) | inconclusive: 8.91 µM [inhibitor, full curve, poor fit] | – |
| CCCCNC(=O)COC(=O)c1ccc(Cl)c(S(=O)(=O)N2CCCC2)c1 | – | inactive: 0% |
| Cc1cc(C)c(Cc2c(C)nc3c(C(=O)NCc4ccco4)cnn3c2C)c(C)c1 | inconclusive: 50.1 µM [inhibitor, partial curve, poor fit] | – |
| O=C(NNC(=S)Nc1ccc(F)c(Cl)c1)c1ccccc1Br | inconclusive: 39.8 µM [inhibitor, partial curve, poor fit] | – |
| COc1ccc(C(=O)N/C(=C\c2cn(C)c3ccccc23)C(=O)N2CCOCC2)cc1OC | inconclusive: 25.1 µM [inhibitor, partial curve] and inconclusive: 35.5 µM [inhibitor, partial curve] | – |
| CCCNc1c(NC(=O)c2cc(Cl)ccc2OC)c(=O)oc2ccccc12 | inconclusive: 70.8 µM [inhibitor, partial curve, poor fit] | – |
| CCn1c(SCC(=O)Nc2cccc(OC)c2)nc2c(c1=O)SCC2 | inconclusive: 50.1 µM [inhibitor, partial curve, poor fit] | – |
| CCCCC1C=CCN1S(=O)(=O)c1cccc(C(=O)NCC(F)(F)F)c1 (stereo not drawn) | inconclusive: 79.4 µM [inhibitor, single point] | – |
| O=C1CC(c2ccccc2)N(Cc2ccncc2)CCCN(C(=O)c2ccsc2)CCN1 (stereo not drawn) | inconclusive: 10 µM [inhibitor, full curve] | – |
| Cc1nc(/C=C/C(=O)NC(C)C23CC4CC(CC(C4)C2)C3)cs1 (stereo not drawn) | inconclusive: 126 µM [inhibitor, single point] | – |

| SMILES | Potency | activity change, negative = inhibition |
| --- | --- | --- |
| S=c1[nH]nc(-c2ccccc2Cl)n1Cc1ccccc1 | inconclusive: 8.91 µM [inhibitor, partial curve, poor fit] | – |
| CCN1CCN(C(=O)CN(C)S(=O)(=O)c2ccc3ccccc3c2)CC1 | inconclusive: 1 µM [inhibitor, partial curve, poor fit] | – |
| O=C(Nc1ccc(Cl)cc1)NC1(C(=O)NCCCN2CCOCC2)CCCCC1 | – | inactive: -11.1% |
| Cc1ccc(NC(=O)CN(C)S(=O)(=O)c2ccc3[nH]c(=O)oc3c2)c(C)c1 | inconclusive: 50.1 µM [inhibitor, partial curve, poor fit] | – |
| Cc1ccc(S(=O)(=O)Nc2ccc3[nH]c(=O)sc3c2)cc1C | inconclusive: 50.1 µM [inhibitor, partial curve, poor fit] | – |
| COc1ccc(CNC(=O)CN(C)S(=O)(=O)c2ccc(Br)s2)cc1 | inconclusive: 3.98 µM [inhibitor, full curve, poor fit] | – |
| CCOc1ccc(NC(=O)c2sc3nc(N4CCOCC4)c4c(c3c2N)CCCC4)cc1 | – | inactive: 14.7% |
| COc1ccc(S(=O)(=O)c2c(C)c(C)n(CC(C)C)c2NC(=O)C2CCCO2)cc1 (stereo not drawn) | – | inactive: -15.2% |
| CNC(=O)[C@@H](CC(C)C)N1CCC[C@H]1C(=O)N[C@@H](CO)CC(C)C | inconclusive: 15.8 µM [inhibitor, full curve] | – |
| Cn1cc(C(F)(F)F)nc1-c1ccc(OC[C@@H](O)CNCCOc2ccc(O)c(C(N)=O)c2)cc1 | inconclusive: 35.5 µM [inhibitor, partial curve, poor fit] | – |
| COCCN1CC(CO)C2(CCN(C(=O)Cc3ccccc3C)CC2)C1 (stereo not drawn) | – | inactive: 27.9% |
| COc1ccc(N=Cc2ccccc2O)cc1 | inconclusive: 50.1 µM [inhibitor, partial curve, poor fit] | – |
| CNc1nc2ccccc2n1/N=C/c1cccc(OC)c1OC | inconclusive: 126 µM [inhibitor, single point] | – |
| COC(=O)C1=C(C)N(Cc2cccc(C(F)(F)F)c2)C(=NCc2ccc(C(F)(F)F)cc2)NC1c1ccc(C(F)(F)F)cc1 (stereo not drawn) | inconclusive: 50.1 µM [inhibitor, partial curve, poor fit] | – |
| O=C(O)c1cc(-c2ccc3c(c2)OCCO3)n[nH]1 | inconclusive: 3.55 µM [inhibitor, full curve, poor fit] | – |
| O=C([C@@H]1CNC[C@H](C(=O)N2CCC(c3ccncn3)CC2)C1)N1CCCC1 | inconclusive: 35.5 µM [inhibitor, full curve, poor fit] | – |
| Cc1cccc(C(=O)NNC(=S)NC(=O)/C=C/c2ccccc2)c1 | inconclusive: 50.1 µM [inhibitor, partial curve, poor fit] | – |
| Cc1ccccc1-c1nnc2sc(NC(=O)c3ccc(F)cc3)nn12 | active: 31.6 µM | – |
| Cc1ccn2c(C(=O)N/N=C/c3ccc(Cl)cc3)c(C)nc2c1 | – | inactive: -4.17% |

Source: PubChem BioAssay AID1671190 (National Center for Advancing Translational Sciences (NCATS), 2021)
